Measured values taken from PubChem BioAssay AID493014 (National Center for Advancing Translational Sciences (NCATS), 2011).
The other results are listed elsewhere or left out. These are further read-outs of the screen, such as a control signal, another cell line or another target. No call is given for them. The list favours compounds with an active or inconclusive main result. Potencies come from curve fits of mixed quality, noted in brackets.

Experiment: qHTS Assay to Find Inhibitors of Chronic Active B-Cell Receptor Signaling
Conditions: ABC-DLBCL IkBa-CBG/CBR reporter, luminescence ratio (green luciferase fused to IkBa over red control in TMD8 lymphoma cells), 4 h
Outline: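 TMD8 human ABC-DLBCL cells with doxycycline-inducible IκBα–green luciferase fusion and unfused red luciferase, in 0.5% FBS medium; compounds up to 46 uM, 4 h at 37C. Green/red luminescence ratio, filter-overlap corrected, fitted to concentration-response curves.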

[1] = measured here: CBR red luminescence, cell number
[2] = measured here: IkBa-CBG green luminescence

SMILES: Cc1ccc(NC2CC(=O)N(CCc3ccccc3)C2=O)cc1 (centres undefined)
- AC50 [1]: 2.91 µM [falling, single point]

SMILES: CSc1ccc(CNC(=O)Cc2ccc(NC(=O)C3=C(C)OCCS3)cc2)cc1
- AC50 [1]: 35.5 µM [rising, single point]

SMILES: COc1ccc(-c2cc(C(=O)Nc3cnn(Cc4ccccc4C)c3)no2)cc1OC
- AC50 [1]: 11.2 µM [falling, partial curve]

SMILES: CN(CC(=O)Nc1ccc(F)c(F)c1F)C(=O)C1=NN(c2ccccc2)C(=O)CC1
- AC50 [1]: 13 µM [rising, partial curve, poor fit]

SMILES: CCC1CCCCN1C(=O)CSc1nnc(-c2c[nH]c3ccccc23)o1 (centres undefined)
- AC50 [1]: 35.5 µM [falling, single point]

SMILES: N#Cc1c(-c2ccco2)cc(-c2ccc(F)cc2)nc1N
- AC50 [1]: 10.3 µM [falling, partial curve, poor fit]
- AC50 [2]: 1.03 µM [rising, partial curve, poor fit]

SMILES: CC12CC(NC(=O)N1c1cccc(C(=O)NCc3ccccn3)c1)c1ccccc1O2 (centres undefined)
- AC50 [1]: 22.4 µM [rising, partial curve, poor fit]

SMILES: CCc1cc(C(=O)N2CCCC(C(=O)c3cccc(OC(C)C)c3)C2)n(C)n1 (centres undefined)
- AC50 [1]: 5.62 µM [falling, full curve, poor fit]

SMILES: CC(C)C[C@H](N)c1nnc(S(=O)(=O)Cc2ccc(F)cc2)o1
- AC50 [1]: 2.24 µM [falling, full curve]

SMILES: CC1CCN(c2oc(Cc3cccc4ccccc34)nc2C#N)CC1
- AC50 [1]: 2.24 µM [rising, partial curve, poor fit]
- AC50 [2]: 10 µM [falling, partial curve, poor fit]

SMILES: COc1cc(S(=O)(=O)N2CCN(C)CC2)c(OC)cc1Br
- AC50 [1]: 8.2 µM [falling, single point]

SMILES: Cc1ccccc1-n1c(C)nnc1SCC(=O)NCC1CCCO1 (centres undefined)
- AC50 [1]: 17.8 µM [rising, single point]

SMILES: O=C(c1ccc(Cl)cc1)N1C2C=CC(C2)C1(C(F)(F)F)C(F)(F)F (centres undefined)
- AC50 [1]: 23.1 µM [rising, partial curve, poor fit]

SMILES: Cc1cc[n+](-c2[nH]c(=O)sc2/C=N/N=C(\[O-])c2ccccc2)cc1
- AC50 [1]: 22.4 µM [falling, single point]

SMILES: Cc1cccc(CSCCNC(=O)COc2ccc(Cl)cc2)c1
- AC50 [1]: 18.4 µM [rising, partial curve, poor fit]

SMILES: CCC(=O)N1CCC2(CC1)Oc1ccc(Cl)cc1C(=O)C21CC(c2ccccc2)=NO1 (centres undefined)
- AC50 [1]: 14.1 µM [falling, single point]

SMILES: O=C(N[C@@H](Cc1ccccc1)C(=O)N1CCN(S(=O)(=O)c2ccccc2F)CC1)c1ccco1
- AC50 [1]: 14.6 µM [rising, partial curve, poor fit]

SMILES: CCCCOC(=O)c1cc(=O)[nH]c2ccc(C)cc12
- AC50 [1]: 6.31 µM [rising, partial curve, poor fit]

SMILES: Cc1nc(N/N=C/c2ccccn2)sc1C
- AC50 [1]: 16.4 µM [falling, single point]
- AC50 [2]: 16.4 µM [falling, single point]

SMILES: COCCNC(=S)N/N=C(\C)c1ccc(Cl)s1
- AC50 [1]: 35.5 µM [falling, single point]
- AC50 [2]: 12.6 µM [falling, partial curve]

SMILES: CCCCN1C(=O)C2C3C=CC(C2C1=O)C1C2C(=O)N(CCCC)C(=O)C2C31 (centres undefined)
- AC50 [1]: 0.651 µM [falling, full curve, poor fit]

SMILES: O=C(COC(=O)c1nsc(Cl)c1Cl)NC1CCCCC1
- AC50 [1]: 12.6 µM [rising, partial curve, poor fit]

SMILES: Nc1c(C(=O)NC23CC4CC(CC(C4)C2)C3)sc2nc3c(c(C(F)(F)F)c12)CCC3
- AC50 [1]: 3.16 µM [rising, single point]

SMILES: COC(=O)c1cc(NC(=O)/C=C/c2ccccc2)ccc1O
- AC50 [1]: 3.55 µM [falling, full curve]

SMILES: CS(=O)c1ccccc1COC(=O)Nc1ccc(Cl)cc1 (centres undefined)
- AC50 [2]: 18.4 µM [rising, partial curve, poor fit]

SMILES: O=C(Nc1nc2c(F)cc(F)cc2s1)C1COc2ccccc2O1 (centres undefined)
- AC50 [1]: 7.94 µM [falling, partial curve]

SMILES: FC(F)(F)c1cccc(NC(=S)Nc2cccc(Cl)c2)c1
- AC50 [1]: 22.4 µM [rising, single point]

SMILES: Cc1ccc(C(=O)CSc2ncnc3ccccc23)o1
- AC50 [1]: 14.1 µM [falling, single point]

SMILES: COc1ccccc1-n1cnnc1SCc1csc(-c2ccccc2)n1
- AC50 [1]: 2.91 µM [falling, partial curve]

SMILES: Cc1ccc(NC(=S)C2=C(O)c3sccc3N(C)S2(=O)=O)cc1
- AC50 [1]: 9.2 µM [falling, single point]

SMILES: O=C(O)c1cccc(C(=O)Cc2ccccc2)c1
- AC50 [1]: 5.62 µM [rising, single point]

SMILES: C/C(=N\NC(=O)c1cc(C(C)(C)C)[nH]n1)C12CC3CC(CC(C3)C1)C2
- AC50 [1]: 3.98 µM [rising, single point]

SMILES: COCCNC(=O)c1onc(CSc2cccc(Cl)c2)c1C(=O)O
- AC50 [1]: 35.5 µM [falling, single point]

SMILES: COc1cc(OC)cc(C(=O)NC(=S)Nc2nnn(C)n2)c1
- AC50 [1]: 15.8 µM [falling, single point]

SMILES: COc1ccc(C/C(N)=N/OC(=O)c2ccc(Cl)cc2)cc1
- AC50 [1]: 17.8 µM [rising, partial curve, poor fit]

SMILES: NC(=O)c1ccccc1NC(=O)/C=C/c1cccc(Cl)c1
- AC50 [1]: 14.1 µM [falling, single point]

SMILES: O=C(CSc1nnc(-c2n[nH]c3ccccc23)n1-c1ccccc1)Nc1ccccc1Cl
- AC50 [1]: 23.1 µM [falling, single point]

SMILES: Cc1c2cnn(CC(=O)Nc3c(F)c(F)cc(F)c3F)c(=O)c2c(C)n1Cc1ccccc1F
- AC50 [1]: 5.62 µM [rising, partial curve, poor fit]

SMILES: Cc1cc(C)n(-c2nnc(C)n2/N=C/c2cc(Br)ccc2OCc2ccccc2)n1
- AC50 [1]: 31.6 µM [falling, single point]

SMILES: Cc1cc(/C=C(\C#N)C(=O)O)c(C)n1CC1CCCO1 (centres undefined)
- AC50 [1]: 3.98 µM [rising, full curve, poor fit]
